Data: publication doi:10.1101/158022
Results are given in words; binding and its absence hold for the method and conditions named. Binding seen in cells or lysates may run through a third protein. These calls come from enrichment with a bait or labelling near it, and not all partners need be listed.

Protein sequences, listed by entry. Tags and fused reporters are not part of them. Residues count along the entry.
UniProt P18065, 36-325: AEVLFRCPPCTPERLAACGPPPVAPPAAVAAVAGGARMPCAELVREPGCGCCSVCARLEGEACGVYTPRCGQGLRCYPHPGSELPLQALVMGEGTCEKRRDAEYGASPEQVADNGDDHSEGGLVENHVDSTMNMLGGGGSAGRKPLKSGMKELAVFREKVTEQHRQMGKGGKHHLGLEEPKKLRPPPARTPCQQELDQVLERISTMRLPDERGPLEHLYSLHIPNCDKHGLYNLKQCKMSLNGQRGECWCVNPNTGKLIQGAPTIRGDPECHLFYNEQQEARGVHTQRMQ

Biological target: insulin growth factor binding protein 2 (human (endogenous in plasma)) (UniProt P18065)
Assay: affinity purification with mass spectrometry

Q: “butyrylcholine esterase (from UniProt P06276 29-602) (enzyme)” was tested. Which binding did it give?
A: binds
